Data as given in PubChem BioAssay AID1259254 (NCATS, 2017).
Shown is a random part of about 59,000 reagents tested. About 1,550 of them (2.6%) count as active. 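G2 share is only a proxy for re-replication; each gene was hit by three separate siRNAs, and active genes were retested.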 The raw values are shown without normalisation. The numbers tell different reagents against one gene apart. No sequences are given here. Not stated in the record: the amount of reagent.

Aim: 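Genome-wide screen for genes that prevent DNA re-replication in cancer cells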 (primary screen)
Cells: human HCT116 colorectal cancer cells
Knock-down reagent: single siRNA against human genes
Timing: 3 days
Read-out: 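Imaged Hoechst DNA stain sorts each cell into a cycle phase by DNA amount; per plate, G2 fraction set to 0% for non-targeting and 100% for GMNN siRNA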
Direction: G2 robust z-score and G2 cells, % of GMNN control: higher = more G2 cells, more excess DNA replication; raw share of cells in G2: higher = larger share of cells with G2 DNA content
Call rule: 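Active siRNAs have a G2 robust z of 5 or more median absolute deviations over the median, which in these data means about 38% or higher of GMNN control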

| target | siRNA no. | G2 robust z-score | G2 cells, % of GMNN control | raw share of cells in G2 (%) | Call |
| --- | --- | --- | --- | --- | --- |
| NRIP1 (GeneID 8204) | 1 | 0.886 | 9.2 | 6.59 | inactive |
| NRIP1 (GeneID 8204) | 2 | 0.387 | 5.69 | 8.52 | inactive |
| NRIP1 (GeneID 8204) | 3 | -0.453 | -0.222 | 3.25 | inactive |
| ENPP3 (GeneID 5169) | 1 | 1 | 10 | 8.06 | inactive |
| ENPP3 (GeneID 5169) | 2 | 1.32 | 12.2 | 7.99 | inactive |
| ENPP3 (GeneID 5169) | 3 | 2.02 | 17.2 | 8.67 | inactive |
| C11orf68 (GeneID 83638) | 1 | -0.836 | -2.92 | 1.52 | inactive |
| C11orf68 (GeneID 83638) | 2 | -0.492 | -0.494 | 3.94 | inactive |
| C11orf68 (GeneID 83638) | 3 | 0.988 | 9.92 | 6.4 | inactive |
| PCDHGB5 (GeneID 56101) | 1 | 0.951 | 9.66 | 10.7 | inactive |
| PCDHGB5 (GeneID 56101) | 2 | -0.00522 | 2.93 | 5.56 | inactive |
| PCDHGB5 (GeneID 56101) | 3 | 0.49 | 6.42 | 6.74 | inactive |
| RDX (GeneID 5962) | 1 | -0.495 | -0.518 | 4.8 | inactive |
| RDX (GeneID 5962) | 2 | -0.995 | -4.03 | 3.14 | inactive |
| RDX (GeneID 5962) | 3 | 0.0623 | 3.41 | 5.28 | inactive |
| FSD2 (GeneID 123722) | 1 | 0.875 | 9.12 | 7.93 | inactive |
| FSD2 (GeneID 123722) | 2 | 4.84 | 37 | 22.8 | inactive |
| FSD2 (GeneID 123722) | 3 | 0.426 | 5.96 | 7.52 | inactive |

Part of the list above, showing only “raw share of cells in G2 (%)”.
C11orf68 (GeneID 83638) #3 = 6.4
PCDHGB5 (GeneID 56101) #1 = 10.7
PCDHGB5 (GeneID 56101) #2 = 5.56
PCDHGB5 (GeneID 56101) #3 = 6.74
RDX (GeneID 5962) #1 = 4.8
RDX (GeneID 5962) #2 = 3.14
RDX (GeneID 5962) #3 = 5.28
FSD2 (GeneID 123722) #1 = 7.93

Next results follow.
| target | siRNA no. | G2 robust z-score | G2 cells, % of GMNN control | raw share of cells in G2 (%) | Call |
| --- | --- | --- | --- | --- | --- |
| CEP70 (GeneID 80321) | 1 | 0.129 | 3.87 | 6.05 | inactive |
| CEP70 (GeneID 80321) | 2 | 0.721 | 8.04 | 7.82 | inactive |
| CEP70 (GeneID 80321) | 3 | 0.167 | 4.14 | 3.51 | inactive |
| SGPP2 (GeneID 130367) | 1 | -0.644 | -1.56 | 3.59 | inactive |
| SGPP2 (GeneID 130367) | 2 | 6.17 | 46.3 | 17.8 | active |
| SGPP2 (GeneID 130367) | 3 | 0.973 | 9.81 | 6.13 | inactive |
| KRTAP12-1 (GeneID 353332) | 1 | -1.03 | -4.29 | 2.46 | inactive |
| KRTAP12-1 (GeneID 353332) | 2 | -0.000275 | 2.97 | 5.01 | inactive |
| KRTAP12-1 (GeneID 353332) | 3 | -0.378 | 0.307 | 3.39 | inactive |
| QRICH2 (GeneID 84074) | 1 | 0.656 | 7.58 | 6.63 | inactive |
| QRICH2 (GeneID 84074) | 2 | -0.485 | -0.447 | 3.32 | inactive |
| QRICH2 (GeneID 84074) | 3 | -1.11 | -4.82 | 0.942 | inactive |
| AIFM1 (GeneID 9131) | 1 | 2.01 | 17.1 | 10.8 | inactive |
| AIFM1 (GeneID 9131) | 2 | 0.334 | 5.32 | 7.13 | inactive |
| AIFM1 (GeneID 9131) | 3 | 2.56 | 21 | 14.1 | inactive |
| TNS2 (GeneID 23371) | 1 | 2.35 | 19.5 | 10.6 | inactive |
| TNS2 (GeneID 23371) | 2 | 4.28 | 33.1 | 19.6 | inactive |
| TNS2 (GeneID 23371) | 3 | 0.0448 | 3.28 | 5.25 | inactive |
| NABP2 (GeneID 79035) | 1 | -0.711 | -2.04 | 4.8 | inactive |
| NABP2 (GeneID 79035) | 2 | -1.17 | -5.24 | 2.49 | inactive |
| NABP2 (GeneID 79035) | 3 | -1 | -4.09 | 2.74 | inactive |
| PCDH11Y (GeneID 83259) | 1 | -0.442 | -0.143 | 4.73 | inactive |
| PCDH11Y (GeneID 83259) | 2 | 1.02 | 10.1 | 9.64 | inactive |
| PCDH11Y (GeneID 83259) | 3 | -0.179 | 1.71 | 4.81 | inactive |
| LGI3 (GeneID 203190) | 1 | -0.597 | -1.23 | 5.37 | inactive |
| LGI3 (GeneID 203190) | 2 | -0.0351 | 2.72 | 5.84 | inactive |
| LGI3 (GeneID 203190) | 3 | 1.01 | 10.1 | 8.39 | inactive |
| TUBB1 (GeneID 81027) | 1 | -1.03 | -4.28 | 2.65 | inactive |
| TUBB1 (GeneID 81027) | 2 | 3.27 | 26 | 14.4 | inactive |
| TUBB1 (GeneID 81027) | 3 | 0.591 | 7.12 | 8.4 | inactive |
